# According to patent US7030081B2 (S.I.S.S.A.- Scuola Internazionale Superiore di Studi …, priority 2000, dated 2006):
# At least one structure is not confirmed: it was looked up by name or label, or the drawing left a doubt.
# Tested on: nAChRs of rat chromaffin cells
# Assay: Patch-clamp recording of nicotine-induced currents in cultured rat chromaffin cells
# Format: cell-based
# Conditions: 1 μM peptide or 0.5 μM physostigmine
# Protocol: Cultures of rat chromaffin cells were prepared according to the Brandt method (Brandt et al., 1976, Giniatullin et al., 1999, Khirough et al., 1997, 1998). 25–35 day old rats were anaesthetized by increasing CO2 levels and then their adrenal glands were removed. The medullary part was separated from the cortical portion of the gland in buffer solution (pH 7.2) containing (mM): NaCl 137, KCl 3, Na2HPO4 0.7, HEPES 25, glucose 10 and 350 U ml^−1 of penicillin and streptomycin. […]
# Dishes containing cultured cells (used from 0 to 3 days after their preparation) were placed on an inverted Nikon DIAPHOT™ microscope and continuously superfused (5–10 ml/min) with control saline containing (mM): NaCl 135, KCl 5, MgCl2 1, CaCl2 2, glucose 15, HEPES 10 (pH 7.4 with addition of NaCH; 285 mOsm osmolarity). […] After obtaining whole-cell configuration (Hamill et al. 1981), each cell was stabilized for […] period, after which membrane ionic currents, mediated by nAChR activation, were recorded, filtered at 1 kHz, and stored in a PC for subsequent analysis with the pCLAMP 6.04 program (Axon Instruments Inc., Foster City, Calif.).
# nAChR agonists were administered to single cells by a pressure system from a micropipette containing a relatively concentrated solution and placed at […] distance from the recorded cell. […]
smiles,measurement,value
"CNC(=O)Oc1ccc2c(c1)[C@]1(C)CCN(C)[C@@H]1N2C [physostigmine, reference compound]",effect on nicotine dose response curve,shifted to left and displayed an increase in its maximum response
